A: 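Enzyme assay of CoaBC with a phosphate dye (Biomol Green) read at 650 nm. Target: Coenzyme A biosynthesis protein CoaBC, Mycobacterium tuberculosis (UniProt P9WNZ1). Concentration: 30 µM. Higher reads as stronger inhibition, judged from the few compounds that gave an IC50. Most strong results did not repeat in a second test. About 67,000 compounds were tested under these conditions; 0.06% (about 40) showed 50% or more at least once.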
B: 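Cell assay of Leishmania donovani living inside macrophages; the read-out is not stated. Tested at 30 µM. Higher reads as stronger inhibition (inferred: compounds with an IC50 in retests scored well above the rest). About 69,000 compounds were tested under these conditions; 1.5% (about 1,000) showed 50% or more at least once.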
C: 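Enzyme assay of the thioesterase domain of polyketide synthase 13; the read-out is not stated. Target: Polyketide synthase Pks13, Mycobacterium tuberculosis (UniProt I6X8D2). Compounds at 30 µM. The record gives no direction; the compounds picked for IC50 retests had high values, so higher reads as stronger inhibition. Size under these conditions: about 67,000 compounds, about 300 of them at 50% or above in at least one test.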
D: 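ClpP1P2, Mycobacterium tuberculosis (UniProt P9WPC5 and UniProt P9WPC3). Protease assay of ClpP1P2, read by the AMC dye that it sets free. Compounds at 50 µM. Direction is inferred from only a few compounds that gave an IC50; most scored high, so higher reads as stronger inhibition. Most other retested compounds had strongly negative values. About 69,000 compounds were tested under these conditions; 0.015% (about 10) showed 50% or more at least once.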
E: 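Enzyme assay of histidyl-tRNA synthetase; the read-out is not stated. Target: Histidine-tRNA ligase, Trypanosoma cruzi CL Brener (UniProt Q4DA54). Compounds at 30 µM. Higher reads as stronger inhibition (inferred: compounds with an IC50 in retests scored well above the rest). Size under these conditions: about 69,000 compounds, about 31 of them at 50% or above in at least one test.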

Chains of the proteins cited; added tags and fusions are not shown. Residues count along the entry.
UniProt P9WNZ1, whole entry: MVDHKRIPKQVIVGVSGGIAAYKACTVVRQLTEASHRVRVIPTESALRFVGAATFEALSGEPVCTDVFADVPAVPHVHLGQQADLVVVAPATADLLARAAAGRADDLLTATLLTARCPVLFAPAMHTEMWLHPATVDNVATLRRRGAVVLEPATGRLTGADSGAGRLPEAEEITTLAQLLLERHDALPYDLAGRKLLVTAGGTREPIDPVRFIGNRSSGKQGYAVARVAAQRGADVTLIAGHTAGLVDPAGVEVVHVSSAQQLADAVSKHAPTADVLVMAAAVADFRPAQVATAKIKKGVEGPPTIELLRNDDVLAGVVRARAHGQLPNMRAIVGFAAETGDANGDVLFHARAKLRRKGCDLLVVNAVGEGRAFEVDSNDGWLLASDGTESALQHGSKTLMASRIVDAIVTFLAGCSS
UniProt I6X8D2, whole entry: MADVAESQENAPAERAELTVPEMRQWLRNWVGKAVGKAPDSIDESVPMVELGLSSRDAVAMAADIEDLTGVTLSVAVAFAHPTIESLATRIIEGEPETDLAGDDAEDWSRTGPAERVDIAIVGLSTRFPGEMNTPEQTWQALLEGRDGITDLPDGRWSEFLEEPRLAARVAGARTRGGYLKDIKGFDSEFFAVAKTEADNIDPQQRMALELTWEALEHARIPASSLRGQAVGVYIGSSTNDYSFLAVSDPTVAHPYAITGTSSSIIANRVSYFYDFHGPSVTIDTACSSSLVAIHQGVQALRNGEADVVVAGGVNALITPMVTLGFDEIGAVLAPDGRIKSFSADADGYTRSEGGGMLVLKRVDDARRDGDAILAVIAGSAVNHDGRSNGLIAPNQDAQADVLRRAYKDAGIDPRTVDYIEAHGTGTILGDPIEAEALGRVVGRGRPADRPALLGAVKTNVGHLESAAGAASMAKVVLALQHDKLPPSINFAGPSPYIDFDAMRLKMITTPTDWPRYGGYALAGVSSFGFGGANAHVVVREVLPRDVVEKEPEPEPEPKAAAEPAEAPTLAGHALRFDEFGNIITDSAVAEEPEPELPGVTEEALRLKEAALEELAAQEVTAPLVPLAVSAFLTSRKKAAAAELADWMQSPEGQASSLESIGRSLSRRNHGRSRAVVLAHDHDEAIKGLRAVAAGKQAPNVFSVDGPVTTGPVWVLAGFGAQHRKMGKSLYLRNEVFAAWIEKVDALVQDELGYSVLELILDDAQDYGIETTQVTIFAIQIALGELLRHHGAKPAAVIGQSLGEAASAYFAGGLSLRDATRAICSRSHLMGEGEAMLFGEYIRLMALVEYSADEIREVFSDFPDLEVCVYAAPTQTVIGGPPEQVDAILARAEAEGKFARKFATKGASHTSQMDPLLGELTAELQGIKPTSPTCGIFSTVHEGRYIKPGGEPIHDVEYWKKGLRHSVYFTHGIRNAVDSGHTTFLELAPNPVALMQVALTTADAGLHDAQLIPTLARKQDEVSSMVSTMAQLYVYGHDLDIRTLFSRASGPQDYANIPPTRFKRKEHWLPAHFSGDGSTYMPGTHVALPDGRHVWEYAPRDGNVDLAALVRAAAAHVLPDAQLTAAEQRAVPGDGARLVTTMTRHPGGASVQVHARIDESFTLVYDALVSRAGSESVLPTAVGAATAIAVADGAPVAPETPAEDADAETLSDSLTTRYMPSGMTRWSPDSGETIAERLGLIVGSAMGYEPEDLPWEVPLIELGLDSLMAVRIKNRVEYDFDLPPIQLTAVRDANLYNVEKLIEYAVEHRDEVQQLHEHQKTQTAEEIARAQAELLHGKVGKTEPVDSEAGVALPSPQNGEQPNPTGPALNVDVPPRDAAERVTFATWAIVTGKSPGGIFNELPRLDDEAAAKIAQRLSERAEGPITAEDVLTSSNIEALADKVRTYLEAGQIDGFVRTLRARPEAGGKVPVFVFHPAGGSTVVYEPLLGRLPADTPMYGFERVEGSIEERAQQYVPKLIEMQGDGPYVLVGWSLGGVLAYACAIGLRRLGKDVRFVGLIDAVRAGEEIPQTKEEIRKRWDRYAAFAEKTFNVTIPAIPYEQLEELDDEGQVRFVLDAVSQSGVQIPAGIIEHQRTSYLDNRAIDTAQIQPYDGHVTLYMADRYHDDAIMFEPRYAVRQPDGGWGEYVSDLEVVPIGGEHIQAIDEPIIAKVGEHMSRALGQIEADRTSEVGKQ
UniProt P9WPC5, whole entry: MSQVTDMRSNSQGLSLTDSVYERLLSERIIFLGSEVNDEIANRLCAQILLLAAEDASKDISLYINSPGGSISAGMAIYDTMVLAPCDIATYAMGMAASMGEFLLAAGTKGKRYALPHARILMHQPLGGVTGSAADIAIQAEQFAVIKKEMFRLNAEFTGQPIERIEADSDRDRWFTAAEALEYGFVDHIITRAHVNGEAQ
UniProt P9WPC3, whole entry partner: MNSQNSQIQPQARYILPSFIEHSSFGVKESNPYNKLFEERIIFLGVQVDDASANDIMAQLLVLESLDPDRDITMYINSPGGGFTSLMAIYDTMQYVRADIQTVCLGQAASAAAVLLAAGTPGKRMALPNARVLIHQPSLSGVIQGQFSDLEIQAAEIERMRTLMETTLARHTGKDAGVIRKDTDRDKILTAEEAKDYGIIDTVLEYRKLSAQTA
UniProt Q4DA54, 1-478: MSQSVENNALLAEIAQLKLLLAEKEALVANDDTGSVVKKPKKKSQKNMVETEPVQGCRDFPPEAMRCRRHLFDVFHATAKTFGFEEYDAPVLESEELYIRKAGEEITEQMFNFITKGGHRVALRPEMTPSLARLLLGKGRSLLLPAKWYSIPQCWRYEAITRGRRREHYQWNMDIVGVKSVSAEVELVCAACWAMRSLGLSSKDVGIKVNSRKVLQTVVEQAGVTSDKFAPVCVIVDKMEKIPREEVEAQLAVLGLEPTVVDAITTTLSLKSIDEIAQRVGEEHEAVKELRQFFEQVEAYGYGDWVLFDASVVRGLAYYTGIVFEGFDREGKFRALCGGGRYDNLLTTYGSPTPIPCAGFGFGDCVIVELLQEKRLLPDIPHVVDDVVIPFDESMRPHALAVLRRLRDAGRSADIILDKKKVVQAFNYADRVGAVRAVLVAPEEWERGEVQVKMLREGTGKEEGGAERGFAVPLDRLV

Values are the deposited “Percent Effect”, in %.
The record does not define 0% and 100%; most values in the screen are far below 50% and negative numbers occur (in some assays of this library far below -100).
Compounds were drawn at random from those tested, without regard to their results.
Two or more numbers in one place are separate tests of the same structure; such repeats can differ widely.
A dash means the value is not listed here; it may have been measured.

structure | A | B | C | D | E
CC(C)NC(=O)[C@]12COC[C@H]1CN(Cc1cnn(C)c1)C2 | -10.12% | - | -8.992% | -11.73% | 4.673%
Cc1cc(C)n(CC2CCCN2CCCc2nc3ccccc3o2)n1 (centres unmarked) | 17.54% | 31.42% | -3.998% | -20% | 6.395%
C[C@@H]1CN(Cc2ccsc2)C[C@]12CCN(Cc1cccnc1)C2=O.O=C(O)C(F)(F)F.O=C(O)C(F)(F)F | - | 31.04% | - | - | -
Cn1cnc2c1C(C(=O)N1CCCO1)N(C(=O)c1ccccc1)CC2 (centres unmarked) | - | 12.24% | -29.41% | 0.9869% | 9.816%
CCc1nsc(N2CCn3c(nnc3C(F)(F)F)C2)n1 | 2.355% | 1.294% | -25.19% | -7.147% | 7.853%
CC(C)(CNC(=O)CCCOc1cccc(F)c1)C(N)=O | 5.115% | 5.849% | -2.588% | -27.68% | 5.294%
Fc1ccc(OCCNC2CCN(Cc3ccncc3)CC2)c(F)c1 | 7.807% | 39.31% | -18.12% | 22.46% | 6.154%
Cn1cc(S(=O)(=O)Nc2c(F)cccc2N2CCCC2)cn1 | 0.369% | 22.83% | -33.08% | -8.616% | 9.195%
[H][C@]12CC[C@@]3(N=C(CC)N(CC)C3=O)[C@@]1([H])CN(S(=O)(=O)CC)C2 | - | 5.08% and -2.964% | - | - | -
CC(C)NC(=O)N1CCC2(CCC(=O)N2CCN(C)C)CC1.O=C(O)C(F)(F)F | - | 9.079% | - | - | -
Cc1cccc2c1OCCC2NCc1c(C(C)C)nn(C)c1N(C)C (centres unmarked) | 2.89% | 26.33% | -1.444% | 5.696% | 2.632%
CCN1CCc2c(sc3c2C(=O)NC(/C=C\c2ccccc2)N3)C1 (centres unmarked) | 0.5263% | -7.55% | 5.011% | -112% | 6.509%
COCc1cc(NCc2ccccc2-n2cncn2)ncn1 | 2.408% | 2.904% | -12.15% | -12.51% | 3.017%
COCCC(=O)N1CCCCC1c1ccc(F)cc1 (centres unmarked) | 2.317% | 10.87% | 4.738% | -6.736% | 12.65%
COCCCN(C)c1nc(-c2ccncc2)nc2c1CCN(C(C)=O)C2 | -0.1631% | 20.88% | -40.47% | 2.202% | 3.96%
CN1CC2(CCC1=O)CCN(CC[C@@H](O)c1ccccc1)CC2 | 3.185% | 1.176% | -21.3% | 13.22% | 0.8%
Cc1ccsc1CN(CCN(C)C)C(=O)c1cc2ccccc2[nH]1 | -50.93% | 9.374% | -17.47% | -1.43% | 6.522%
[H][C@@]12C[C@@H](OC)C[C@]1([H])CN(C(=O)c1cc3cccc(F)c3[nH]1)C2 | - | 29.02% | - | - | -
CCCNC(=O)C(C)Nc1ccc(OCC)cc1 (centres unmarked) | 1.739% | 22.35% | -9.125% | -16.81% | 3.59%
CN(C)c1cnnc(N2CCN(C(=O)Cc3ccccc3)CC2)c1 | 13.74% | 19.69% and 12.66% | -26.86% | -2.94% | 2.062%
Cc1cnc2c(c1NCc1cccnc1)c(=O)n(C)c(=O)n2C | 3.053% | -22.33% and 18.52% | 11.3% | 4.41% | 4.819%
CCN(CC)S(=O)(=O)N1C[C@@H](O)[C@H](Oc2cccc(F)c2)C1 | 2.184% | 16.61% | -8.632% | -14.86% | 6.513%
Cc1noc(C2CCN(C(=O)C3CCCO3)CC2)n1 (centres unmarked) | -1.235% | 3.116% | -14.64% | 4.881% | 4.663%
Cc1nn(C)cc1CN1CCc2nc(-c3cccnc3)nc(O)c2C1 | 3.922% | 2.782% | 9.597% | -5.166% | 7.447%
O=C(Nc1ccccn1)N(CCO)Cc1ccccc1Br | 7.985% | 5.548% | -4.073% | -32.81% | 5.917%
COCCC(=O)N1CCC2(CCN(Cc3cccc(F)c3)CC2)CC1.O=C(O)C(F)(F)F | - | 19.14% | - | - | -
Cc1cc(C(=O)N(C)CCN(C)C(=O)OC(C)(C)C)oc1C | 2.675% | -5.559% | -21.88% | -2.259% | 3.867%
CC(C)CC(C)NCc1cccnc1N1CCN(c2ccccn2)CC1 (centres unmarked) | 2.314% | -9.063% | -6.167% | 3.366% | 0.5952%
COc1ccc2c(ccn2CCC(=O)NCCC(=O)O)c1 | 1.332% | -7.367% | 22.6% | 14.83% | 2.97%
OCCOCc1n[nH]c2c1CN(Cc1ccccn1)C2 | 4.926% | - | -9.81% | -4.487% | 3.093%
CCOC1CCC2(CCN(C(=O)c3c[nH]cn3)CC2)c2ccccc21 (centres unmarked) | 3.273% | 6.208% | -1.437% | -9.752% | 5.028%
CC1COCCN1Cc1nc(-c2cccs2)no1 (centres unmarked) | 3.915% | 29.16% | 1.928% | 12.36% | 0.7519%
[H][C@@]12OCCN(C(=O)c3occc3C)[C@@]1([H])CC[C@H]2OCc1ccncc1 | - | 11.32% | - | - | -
CCC(CNC(=O)c1cc(OC)ccc1Br)N1CCc2ccccc2C1 (centres unmarked) | 0.6397% | 25.7% | -9.921% | 7.975% | 4.167%
Cn1nccc1-c1cnc2n1CCNC21CCN(C(=O)C2(C)CC2)CC1 | 0.6188% | 8.559% | 0.3771% | -5.72% | 2.513%
Cc1nc(CN2CCC3(CC2)CC(=O)N(C)c2ccccc23)cs1.O=C(O)C(F)(F)F | - | 22.99% | - | - | -
CCOC(=O)N1CCC(C(=O)c2cc(F)ccc2F)CC1 | 1.33% | -18.16% | 7.727% | 1.054% | -0.3802%
CS(=O)(=O)C1CCN(S(=O)(=O)Cc2cccc(F)c2)CC1 | 2.886% | 13.89% | 2.913% | -12.45% | -0.4878%
CCCNC(=O)c1ccc(NC(=O)c2cccc(OCC)c2)cc1 | -9.595% | 34.38% | -18.67% | -14.86% | 6.667%
Cn1ccnc1SCCNC(=O)Cn1cnc2ccccc2c1=O | -0.4132% | 32.16% | - | -2.062% | -0.578%
CC(=O)Nc1ccc(CNCC(O)c2ccc(C)cc2)cc1 (centres unmarked) | -8.264% | 5.174% | - | 3.546% | 10%

Some entries from above, unchanged:

For CCN1CCc2c(sc3c2C(=O)NC(/C=C\c2ccccc2)N3)C1 (centres unmarked) the result was A: 0.5263%; B: -7.55%; C: 5.011%; D: -112%; E: 6.509%.
For OCCOCc1n[nH]c2c1CN(Cc1ccccn1)C2 the result was A: 4.926%; C: -9.81%; D: -4.487%; E: 3.093%.
For CN(C)c1cnnc(N2CCN(C(=O)Cc3ccccc3)CC2)c1 the result was A: 13.74%; B: 19.69% and 12.66%; C: -26.86%; D: -2.94%; E: 2.062%.

The values are deposited in ChEMBL (CHEMBL3988442, “University of Dundee, Small-Polar-MMV Screening Library” (2021)).